Assay results as given in PMC9820267.
No constants are given. Whether binding was seen depends on the method and setting. In cells and extracts the contact can be indirect. Some entries that bind do so weakly or less than the wild type. Tags and fused reporters may be left off the sequences shown.

How the values were obtained:
Assay in all cases: pull-down; COS7 cells cotransfected with pEF-BOS-GST and pCAGGS-Myc plasmids, untreated or treated with calyculin A (50 nM, 12 min) with or without Y-27632 (20 uM); lysate (150 mM NaCl, 20 mM Tris-HCl pH 7.5, 1% NP-40) on glutathione-Sepharose 4B beads, 1 h, 4 °C; immunoblot
[1] = target: GST-PSD-93-PDZ3-SH3 (WT) (mouse) (UniProt Q91XM9)
[2] = target: GST-PSD-93-PDZ3-SH3-T585D/T612D (mouse) (UniProt Q91XM9)
[3] = target: GST-PSD-93-PDZ3-SH3-T585A/T612A (mouse) (UniProt Q91XM9)

Measured: binding

B1: Myc-SynGAP1 (protein, UniProt F6SEU4 1-1340)
chain: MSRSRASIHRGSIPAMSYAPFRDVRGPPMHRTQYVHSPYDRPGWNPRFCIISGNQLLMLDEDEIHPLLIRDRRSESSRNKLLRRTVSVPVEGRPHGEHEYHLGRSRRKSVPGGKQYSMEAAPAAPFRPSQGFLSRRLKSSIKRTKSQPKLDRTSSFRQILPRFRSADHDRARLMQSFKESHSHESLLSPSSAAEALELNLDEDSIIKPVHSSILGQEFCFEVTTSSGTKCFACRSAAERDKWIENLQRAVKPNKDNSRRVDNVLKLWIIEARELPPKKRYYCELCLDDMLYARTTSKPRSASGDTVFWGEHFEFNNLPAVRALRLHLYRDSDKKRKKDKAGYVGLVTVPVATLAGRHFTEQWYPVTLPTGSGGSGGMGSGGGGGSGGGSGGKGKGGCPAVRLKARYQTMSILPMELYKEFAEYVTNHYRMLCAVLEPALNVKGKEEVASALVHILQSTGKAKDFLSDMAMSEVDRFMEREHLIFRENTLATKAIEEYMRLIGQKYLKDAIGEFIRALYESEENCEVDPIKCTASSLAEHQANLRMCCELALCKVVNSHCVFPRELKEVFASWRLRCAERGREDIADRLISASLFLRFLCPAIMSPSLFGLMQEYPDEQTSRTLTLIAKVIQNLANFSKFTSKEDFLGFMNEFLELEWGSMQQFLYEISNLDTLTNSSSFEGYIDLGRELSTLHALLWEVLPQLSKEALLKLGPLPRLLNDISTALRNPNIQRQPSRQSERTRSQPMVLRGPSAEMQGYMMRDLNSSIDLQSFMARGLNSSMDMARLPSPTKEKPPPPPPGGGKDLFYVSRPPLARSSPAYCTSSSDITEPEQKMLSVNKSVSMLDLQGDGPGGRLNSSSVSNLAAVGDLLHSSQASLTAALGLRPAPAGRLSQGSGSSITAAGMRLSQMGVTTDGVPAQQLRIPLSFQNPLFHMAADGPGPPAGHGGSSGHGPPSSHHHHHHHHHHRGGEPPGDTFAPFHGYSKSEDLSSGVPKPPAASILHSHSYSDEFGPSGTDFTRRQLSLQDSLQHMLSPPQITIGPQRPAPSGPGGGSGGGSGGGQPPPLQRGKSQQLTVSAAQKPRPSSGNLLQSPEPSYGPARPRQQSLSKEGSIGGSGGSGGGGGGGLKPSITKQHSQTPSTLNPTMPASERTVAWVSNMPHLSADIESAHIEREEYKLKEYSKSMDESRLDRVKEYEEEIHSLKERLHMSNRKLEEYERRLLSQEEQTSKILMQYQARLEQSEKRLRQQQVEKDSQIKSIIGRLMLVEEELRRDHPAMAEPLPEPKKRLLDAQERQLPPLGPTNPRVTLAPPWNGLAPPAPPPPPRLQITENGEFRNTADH
binds: all assays above
